# In patent US20030143645A1, “Quinone reductase 2 and aldehyde dehydrogenase as therapeutic targets” (priority 2001, published 2003):
# For at least one compound, name, drawing or mass did not settle the structure.
# Tested on: malaria infection
# Assay: cell-based assays of infection
compound,measurement,value
"CCN(CC)C(=S)SSC(=S)N(CC)CC [Antibuse, disulfiram]",antimalarial activity,have antimalarial activity
